assay: general procedure: Fmoc solid-phase peptide synthesis; Fmoc-Rink amide AM resin (100–200 mesh, loading capacity 0.62 mmol/g); DIC/HOBT (8 eq.) in DMF; conditions: whole synthesis

Row | Substance | purity (crude or final not stated)
1 | VRLIVAVRIWRR-NH2 | 94%
2 | VDKPPYLPRPRPPRrIYNr-NH2 | 87%
3 | VDKPPYLPRPRPPROIYNO-NH2 | 95%
4 | KRFRIRVRV-NH2 | 99%

From PMC12021911 (Frontiers in Microbiology, 2025)
